Source: PMC9861516
A negative result means that nothing was seen under these conditions. Where a protein sequence is shown, tags need not be part of it.

Tests used:
[1] = system: T1, OmpR (Acidithiobacillus caldus MTH-04); assay: ITC; conditions: ITC: TE buffer (100 mM Tris-HCl, 50 mM EDTA, pH 8.0), 30 C, 24 uM OmpR, 2 uM dsDNA; recombinant protein; residues 1-240; protein details: His tag (pET-28a, BamHI/HindIII, HisTrap purified); probe letters rebuilt from the primers and the genome
T1 sequence (looked up): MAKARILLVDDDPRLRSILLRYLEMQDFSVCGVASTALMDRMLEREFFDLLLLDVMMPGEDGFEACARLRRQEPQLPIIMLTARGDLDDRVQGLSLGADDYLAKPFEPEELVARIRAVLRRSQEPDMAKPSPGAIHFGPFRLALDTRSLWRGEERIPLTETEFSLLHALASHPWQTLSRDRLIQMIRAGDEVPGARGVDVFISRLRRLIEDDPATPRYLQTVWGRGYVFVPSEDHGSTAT

[2] = system: T1, OmpR (Acidithiobacillus caldus MTH-04); assay: EMSA; conditions: recombinant protein; residues 1-240; protein details: His tag (pET-28a, BamHI/HindIII, HisTrap purified); probe letters rebuilt from the primers and the genome

Sequence	binding result [1]	binding result [2]
AGCGCCGATTGTGTACAGAATGAACAGTGGCGAGTCTGCTCGGCAACCCGGACATGGGATGGGAATCGGGTTGATGATTTGTCATCGCATCATGGCATTGCACAAGGGCTCTTTGCATTTCACATCAGAGGATGGGCTGGCGGCAACCATTTGCCTTCCGAGAGTACAAGATGGAGTAACATCGGCACAGAGACAGGAATTCAACGCACGTAAATTGTAACACCTGTTACACCTGTTACAACTTGTTACATAAGCTAAAACTTATATGCAATTGTCTCCTATGGGCCCCGAGTATACTATCCGAAGCGCGGCGTAGTTATGCCCCTAGACAACGTATTAGCGATTCGGAGATTATATATC (double strand) [T360 (tetH promoter fragment)]	binds	binds
CGCAATATTCTGCGGGCGGTCTATGAAGCCGAGCGGCAGAACGAGATTCAGATCGTCGCCATCAACGATCTCGGCAGCCCGGAGACCAATGCCCATCTGACCCAGTACGACTCGGTACACGGCCGCTTTCCCTTCCCCGTCAGCGTCGAGGGGCAGGAGATGTTGGTGGGCAAGGATCGCGTGCGGGTTCTGGCGGAGCGGGATCCGAGCAAGCTGCCCTGGGGTGACCTGGGGGTGGACGTGGTGCTGGAGTGCACCGGCATCTTCACCACCCGCGAAAAGGCGTCGCTGCACATCCAGGGTGGCGCCAAGAAGGTCCTGATCTCCGCCCCGGCCAAGGATCCGGTGGACCTTACCGTA (double strand) [G360 (gapdH gene fragment)]	no binding	no binding
